In the supplement of paper PMC4683952:
The list shows a part of the results. Cut-off read from the data, not from the text of the source: active = 2 or more and inactive = the rest. Single values are uncertain here, since repeats match poorly.

What follows are molecules tested on Lgr5 (MarsCy1-Lgr5-EGFP, U2OS) (assay: cell-surface Lgr5 expression (SCi1 fluorescence, background-subtracted) relative to WT DMSO (fold of DMSO control); higher = more Lgr5 at the plasma membrane). Details: U2OS MarsCy1-Lgr5-EGFP stable; treatment time: overnight; library: ActiProbe-5K (TimTec); 25 µM.

cell-surface Lgr5 expression, inactive:
O=C(NCCN1CCOCC1)C12CC3CC(CC(C3)C1)C2 1.33
Oc1nc(S)nc2ccccc12 1.05
CCc1nnc(CC)n1N 1.33
Nc1nnc(C2CCCCC2)s1 1.23
CCCCC(CC)C(=O)N1CC(C)OC(C)C1 (stereo not given) 1.08
CCOC(=O)c1[nH]c(C)c(C(C)=O)c1C 1.51
NCc1nc2cc(Cl)ccc2[nH]1 1.18
O=c1[nH]c2ccccc2s1 1.37
O=S(=O)(c1ccccc1)c1ccsc1 1.29
C=CCC1(CC=C)CCN1C(=O)c1cnc(SC)nc1 0.882
Nc1ccc(/N=N\c2ccc(N(CCO)CCO)cc2)cc1 0.878
COc1ccc(N/C(=N/C#N)SC)cc1 0.925
Cn1ncc(Cl)c1-c1nc(-c2nonc2N)no1 1.1
CCC1CCC2(CC1)C(C#N)=C(N)OC1=C2C(=O)CC(C)(C)C1 (stereo not given) 1.14
O=C(CSc1n[nH]c(=O)n1-c1ccccc1)c1ccccn1 1.26
C/C(=N\NC(=O)c1ccoc1C)C(C)(C)C 1.31
O=C(CCCCCCCC(=O)Nc1nccs1)Nc1nccs1 1.01
Cc1nn(CC(=O)N2CCN3CCCC3C2)cc1Cl (stereo not given) 0.97
CCc1[nH]nc2c1C1(CCOCC1)C(C#N)=C(N)O2 1.09
O=C(O)c1nn(C23CC4CC(CC(C4)C2)C3)cc1[N+](=O)[O-] 1.03
Cn1ccc(-c2ccnc(NN)n2)n1 1
COc1cc(C2c3cc4c(cc3OC3(O)CCCCC23)OCO4)cc(OC)c1OC (stereo not given) 1.49
Nc1nnc(SCC(=O)N2CCOCC2)s1 1.29
CN(C)S(=O)(=O)Nc1nc2ccc(S(C)(=O)=O)cc2s1 1.1
O=S(=O)(Nc1nc2ccccc2s1)c1ccccc1 1.05
c1ccc2sc(CCc3nc4ccccc4s3)nc2c1 1.28
CCOC(=O)c1sc2nc3n(c(=O)c2c1C)CCCC3C(=O)OCC (stereo not given) 1.38
O=C1NC(=O)/C(=C\c2ccc3cccnc3c2)S1 1.49
C1(=C([C@]([C@@H]([C@@H]2(C1=CCN(C2)CCC))c1cscc1)(C#N)C#N)N)C#N 1.24
Cc1n[nH]c(=O)nc1N/N=C/c1cccs1 0.951
Brc1ccc2c(c1)c1nc3ccccc3nc1n2CCc1ccccc1 1.71
CC1(C)CC(NC(=O)CCC2CCCCC2)CC(C)(CNC(=O)CCC2CCCCC2)C1 (stereo not given) 1
C1(/c2c(cccc2)c2c1cccc2)=N/NC(=S)N 1.01
CC1(C)Nc2ccccc2-c2c1ss/c2=N/c1ccc(Cl)cc1Cl 1.02
NNc1cc(Cl)ccc1[N+](=O)[O-] 1.55
CC1CC(C)CN(C(=O)N2CCOCC2)C1 (stereo not given) 1.22
CC1(C)OC(=O)N(CCCC(=O)[O-])C1(C)O (stereo not given) 1.33
N#Cc1ccnc(Oc2ccc3c(c2)OCO3)c1 1.26
Clc1ccc(OC2CCCNC2)cc1 (stereo not given) 1.09
CCC1(C)OC(=O)N(Cc2ccco2)C1(C)O (stereo not given) 1.3
N#Cc1c(SCc2cccc(F)c2)nsc1SCc1cccc(F)c1 0.763
Brc1csc(-c2cc(Br)cs2)c1 1.03
CC(C)c1ccc(C2Oc3ccccc3C3CC(c4ccccc4)=NN32)cc1 (stereo not given) 0.848
NC(=O)c1c(NC(=O)c2ccc(Br)o2)sc2c1CCCC2 1.12
NCCCn1cc(Cl)c([N+](=O)[O-])n1 1.43
CC1=Nc2c(ccc3cccnc23)C1(C)C 1.04
CCCCC1(CCCC)NC(=S)N(c2ccc(C)cc2)N1 1.13
Cc1[nH]nc2c1C1(CCSCC1)C(C#N)=C(N)O2 0.97
C=CCNc1nc(N2CCCCC2)nc(N2CCCCC2)n1 1.44
Cc1cc(N(C)N)n2c(nc3cc(F)c(F)cc32)c1C#N 0.968
CCN1CCC(=O)C(C)C1C (stereo not given) 1.3
N#CCSc1nnc2c(n1)[nH]c1ccccc12 1.1
Cc1ccc(-c2nn(CN3CCC(c4ccccc4)C3)c(=S)n2-c2ccccc2)cc1 (stereo not given) 1.27
O=c1[nH]nc(CSCc2ccc3nsnc3c2)[nH]1 0.973
CCOC(=O)c1csc(C)c1C 1.31
CCOC(=O)C1=C(C)NC(=O)NC1c1ccoc1 (stereo not given) 1.35
C(O)(=O)[C@@H]1CS[C@](N1)(C)C 1.19
Cc1nn(C)c(C)c1CN1CCN(c2[nH]ncc2[N+](=O)[O-])CC1 1.17
C=CCn1nnn([C@H]2CC(=O)[C@@H]3OC[C@H]2O3)c1=S 0.785
Cc1cc(C)n(-c2ccc(=O)[nH]n2)n1 1.54
COc1ccc(S(=O)(=O)Nc2nc3ccc(S(C)(=O)=O)cc3s2)cc1 1.01
O=S(=O)(Nc1cccnc1)c1ccc(Br)cc1 1.03
Cn1c2c(c(=O)n(C)c1=O)COC2=O 1.25
COc1ccc(/C(=N/O)c2nccc3cc(OC)c(OC)cc23)cc1OC 1.15
CCc1cc(CC)c(/C=N/O)c(CC)c1/C=N\O 1.02
CC1(C)CCC(=O)c2nnn(-c3nonc3N)c21 0.74
CCCN1CCC(CC(=O)O)CC1 1.55
c1ccc(C2OCc3nonc3CO2)cc1 1.36
CCOc1ccc2c(c1)-c1c(sn(-c3ccc(C(C)C)cc3)c1=S)C(C)(C)N2 1.11
OCC/N=C1\CCCc2c1[nH]c1ccc(Cl)cc21 0.971
O=Cc1ccc(-c2ccc3c(c2)C(=O)OC3)o1 1.14
CC1(C)Cc2c(sc(NC(=O)C3CC(=O)OC34CCCCC4)c2C#N)CO1 (stereo not given) 1.01
N#Cc1cc2c([nH]c1=S)CCCCCC2 1.41
O=C(N/N=C/C=C/c1ccco1)c1ccco1 1.09
COCc1[nH]nc2c1C1(CCOC1C)C(C#N)=C(N)O2 (stereo not given) 1.13
O=C1NCCN1C(=O)C12CC3CC(CC(C3)C1)C2 1.33
CCN(CC)c1nc(C#N)nc(N2CCOCC2)n1 1.21
OCCSc1nc2ccccc2s1 1.2
CN(C)c1nc(N)nc(Cn2ccnc2)n1 1.17
Cc1ccc(-c2nnc(CSC3CCS(=O)(=O)C3)o2)o1 (stereo not given) 1.16
N#Cc1c(SCC(=O)O)sc2c(O)nc(=O)[nH]c12 1.39
CC(C)(C)OC(=O)N1C(N)=C(C#N)C2(CCOCC2)c2nc(C(F)(F)F)[nH]c21 0.976
CCCCOCC(O)CN1CCCC1 (stereo not given) 1.2
CCCc1cc(=S)sc(N)n1 0.918
O=C(N/N=C\C=N\NC(=O)c1cccs1)c1cccs1 0.779
OCC1(CO)COC(c2ccccc2)=N1 1.22
CCOC(=O)C1=NOC(Cc2c(Br)c(OC)c3c(c2OC)OCO3)C1 (stereo not given) 1.26
C=C1N(C)c2ccc([N+](=O)[O-])cc2C1(C)C 1.04
CC(C)(C)S(=O)(=O)c1ccc(C(=O)O)s1 1.35
O=c1nc(O)c2sc3nc4c(c(C(F)(F)F)c3c2[nH]1)CCC4 1.29
COc1cc(/N=C\c2cc(Cl)cc(Cl)c2O)c(OC)cc1Cl 1.14
CCOC(=O)COc1nsnc1N1CCOCC1 1.16
Cc1cc(C)n2[nH]c(=O)c([N+](=O)[O-])c2n1 1.24
CCOC(=O)c1c(N)no[n+]1[O-] 1.43
CCCCCn1cnc2sc3c(c2c1=O)CCC(C)C3 (stereo not given) 1.42
Cc1ccsc1C(C1=C(O)CC(C)(C)CC1=O)C1C(=O)CC(C)(C)CC1=O (stereo not given) 1.1
c1ccc2ncc(-n3cnnn3)cc2c1 1.1
Cc1ccc(/C=N\n2c(S)nnc2C2CCCCC2)s1 1.02
O=C(C1=C(O)C(=O)N(CCCN2CCOCC2)C1c1cccs1)c1cccs1 (stereo not given) 1.2
CCSc1sc2c(O)nc(=O)[nH]c2c1C#N 1.11
Oc1ccc(Br)cc1/C=N\c1ccc(Cl)cn1 0.916
CC(C)C1C(=S)N(c2ccccc2)N=C1O (stereo not given) 1.18
NC(=S)C12CC3CC(CC(C3)C1)C2 1.33
COc1cc(OC)c2c(c1)C(=O)N(C1CC1)C(=O)C2=O 1.09
N#Cc1c(C(F)(F)F)cc(O)[nH]c1=S 1.18
O=c1[nH]cnc2c1nc(N1CCN(CCO)CC1)n2C1OC(CO)C(O)C1O (stereo not given) 0.996
Cc1nn(C)cc1C1CC(C(F)(F)F)n2nccc2N1 (stereo not given) 1.29
CCn1ccc(/C=C2\CC/C(=C\c3ccn(CC)n3)C2=O)n1 1.18
NCc1csc2c1CCCC2 1.33
N#CC1=C(S)N[C@H](c2cccnc2)[C@@](C#N)(C(N)=S)[C@H]1c1cccnc1 1.24

Molecules above that contain a halogen:
cell-surface Lgr5 expression, inactive:
NCc1nc2cc(Cl)ccc2[nH]1 1.18
Cn1ncc(Cl)c1-c1nc(-c2nonc2N)no1 1.1
Cc1nn(CC(=O)N2CCN3CCCC3C2)cc1Cl (stereo not given) 0.97
Brc1ccc2c(c1)c1nc3ccccc3nc1n2CCc1ccccc1 1.71
CC1(C)Nc2ccccc2-c2c1ss/c2=N/c1ccc(Cl)cc1Cl 1.02
NNc1cc(Cl)ccc1[N+](=O)[O-] 1.55
Clc1ccc(OC2CCCNC2)cc1 (stereo not given) 1.09
N#Cc1c(SCc2cccc(F)c2)nsc1SCc1cccc(F)c1 0.763
Brc1csc(-c2cc(Br)cs2)c1 1.03
NC(=O)c1c(NC(=O)c2ccc(Br)o2)sc2c1CCCC2 1.12
NCCCn1cc(Cl)c([N+](=O)[O-])n1 1.43
Cc1cc(N(C)N)n2c(nc3cc(F)c(F)cc32)c1C#N 0.968
O=S(=O)(Nc1cccnc1)c1ccc(Br)cc1 1.03
OCC/N=C1\CCCc2c1[nH]c1ccc(Cl)cc21 0.971
CC(C)(C)OC(=O)N1C(N)=C(C#N)C2(CCOCC2)c2nc(C(F)(F)F)[nH]c21 0.976
CCOC(=O)C1=NOC(Cc2c(Br)c(OC)c3c(c2OC)OCO3)C1 (stereo not given) 1.26
O=c1nc(O)c2sc3nc4c(c(C(F)(F)F)c3c2[nH]1)CCC4 1.29
COc1cc(/N=C\c2cc(Cl)cc(Cl)c2O)c(OC)cc1Cl 1.14
Oc1ccc(Br)cc1/C=N\c1ccc(Cl)cn1 0.916
N#Cc1c(C(F)(F)F)cc(O)[nH]c1=S 1.18
Cc1nn(C)cc1C1CC(C(F)(F)F)n2nccc2N1 (stereo not given) 1.29

Quoted at random: three entries already listed.
cell-surface Lgr5 expression, inactive:
Cc1nn(CC(=O)N2CCN3CCCC3C2)cc1Cl (stereo not given) 0.97
Oc1ccc(Br)cc1/C=N\c1ccc(Cl)cn1 0.916
Cn1ncc(Cl)c1-c1nc(-c2nonc2N)no1 1.1
